Results are given in words; binding and its absence hold for the method and conditions named. Binding seen in cells or lysates may run through a third protein. Some results given as binding are weak or reduced against the parent protein; the word gives no strength.

The chains behind the UniProt entries cited, without tags or fusion partners. Where a name states a change or a piece, a line headed by the entry shows the natural chain unless it says otherwise. A line that says so, or that is headed by a name, gives the form on record, which may keep a tag or linker.
CD44 S316A (P16070-12, form named): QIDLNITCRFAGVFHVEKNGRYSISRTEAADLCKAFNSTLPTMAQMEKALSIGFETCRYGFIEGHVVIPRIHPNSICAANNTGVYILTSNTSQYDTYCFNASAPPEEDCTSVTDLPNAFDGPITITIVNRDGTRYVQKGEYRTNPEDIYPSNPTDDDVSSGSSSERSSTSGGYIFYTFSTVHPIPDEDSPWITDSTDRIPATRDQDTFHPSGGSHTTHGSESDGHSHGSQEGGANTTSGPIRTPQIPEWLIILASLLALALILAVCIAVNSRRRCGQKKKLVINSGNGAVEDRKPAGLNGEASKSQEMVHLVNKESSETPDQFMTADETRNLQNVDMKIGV
CD44 mutant altering the putative nuclear localization signal (NLS mutant) (P16070-12, form named): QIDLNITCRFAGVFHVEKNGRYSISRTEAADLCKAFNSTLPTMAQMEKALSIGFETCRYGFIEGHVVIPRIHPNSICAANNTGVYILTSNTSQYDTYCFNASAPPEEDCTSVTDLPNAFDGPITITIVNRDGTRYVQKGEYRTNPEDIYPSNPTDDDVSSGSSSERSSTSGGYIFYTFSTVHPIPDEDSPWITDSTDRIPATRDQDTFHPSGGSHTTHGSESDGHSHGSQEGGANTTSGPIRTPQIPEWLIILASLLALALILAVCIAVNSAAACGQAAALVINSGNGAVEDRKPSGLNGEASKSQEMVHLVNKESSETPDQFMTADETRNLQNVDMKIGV
CD44 S325A (P16070-12, form named): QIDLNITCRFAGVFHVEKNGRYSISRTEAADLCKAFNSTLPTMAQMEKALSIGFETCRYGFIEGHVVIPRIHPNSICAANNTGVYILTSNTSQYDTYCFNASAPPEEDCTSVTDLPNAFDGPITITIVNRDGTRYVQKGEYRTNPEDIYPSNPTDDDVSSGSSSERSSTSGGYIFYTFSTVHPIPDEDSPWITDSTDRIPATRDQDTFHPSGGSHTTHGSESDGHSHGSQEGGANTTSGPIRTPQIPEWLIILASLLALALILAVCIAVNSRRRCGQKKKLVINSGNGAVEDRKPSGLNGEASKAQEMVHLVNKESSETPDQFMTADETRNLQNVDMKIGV
CD44 mutated in the ankyrin-binding domain (R313I, K314N) (P16070-12, form named): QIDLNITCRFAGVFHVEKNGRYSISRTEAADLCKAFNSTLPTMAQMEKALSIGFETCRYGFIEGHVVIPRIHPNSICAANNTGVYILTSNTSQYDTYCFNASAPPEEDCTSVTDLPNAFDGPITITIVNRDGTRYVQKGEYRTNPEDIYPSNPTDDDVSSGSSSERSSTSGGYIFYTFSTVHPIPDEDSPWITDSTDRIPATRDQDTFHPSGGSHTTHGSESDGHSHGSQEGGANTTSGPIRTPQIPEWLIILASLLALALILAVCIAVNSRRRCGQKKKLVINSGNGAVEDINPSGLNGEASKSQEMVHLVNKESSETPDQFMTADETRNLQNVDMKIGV
CD44 Δ320 deletion mutant (P16070-12, form named): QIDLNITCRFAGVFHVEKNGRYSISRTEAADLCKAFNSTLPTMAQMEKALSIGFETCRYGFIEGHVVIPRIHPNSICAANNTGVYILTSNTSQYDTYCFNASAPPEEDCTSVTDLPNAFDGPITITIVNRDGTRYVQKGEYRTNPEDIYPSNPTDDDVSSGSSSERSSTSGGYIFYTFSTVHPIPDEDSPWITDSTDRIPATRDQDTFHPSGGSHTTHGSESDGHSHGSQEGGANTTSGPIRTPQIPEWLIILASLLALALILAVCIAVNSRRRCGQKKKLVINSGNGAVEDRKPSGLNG
wild-type CD44 standard form (wt CD44) (P16070-12, form named): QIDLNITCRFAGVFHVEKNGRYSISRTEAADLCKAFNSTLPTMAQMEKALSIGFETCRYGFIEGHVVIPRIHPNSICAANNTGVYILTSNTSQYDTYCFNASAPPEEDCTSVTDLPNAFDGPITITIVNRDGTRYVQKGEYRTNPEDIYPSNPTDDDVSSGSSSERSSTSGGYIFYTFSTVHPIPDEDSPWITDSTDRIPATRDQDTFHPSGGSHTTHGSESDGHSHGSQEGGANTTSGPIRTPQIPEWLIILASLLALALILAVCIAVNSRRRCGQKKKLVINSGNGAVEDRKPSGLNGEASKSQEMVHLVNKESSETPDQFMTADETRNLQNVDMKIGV
CD44 S291A (P16070-12, form named): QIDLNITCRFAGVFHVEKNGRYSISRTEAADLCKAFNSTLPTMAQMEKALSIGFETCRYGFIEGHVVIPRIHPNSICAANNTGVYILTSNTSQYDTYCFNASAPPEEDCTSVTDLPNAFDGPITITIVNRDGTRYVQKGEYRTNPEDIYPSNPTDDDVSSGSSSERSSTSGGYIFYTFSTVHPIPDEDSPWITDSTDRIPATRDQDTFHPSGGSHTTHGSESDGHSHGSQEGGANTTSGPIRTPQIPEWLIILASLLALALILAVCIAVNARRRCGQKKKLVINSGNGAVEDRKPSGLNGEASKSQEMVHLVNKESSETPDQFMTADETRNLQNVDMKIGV

The text below walks through data of PMC9954134.

Test [1] concerns the target T1, iASPP (in lysates of cells transfected with CD44 constructs) (UniProt Q8WUF5).
T1 sequence: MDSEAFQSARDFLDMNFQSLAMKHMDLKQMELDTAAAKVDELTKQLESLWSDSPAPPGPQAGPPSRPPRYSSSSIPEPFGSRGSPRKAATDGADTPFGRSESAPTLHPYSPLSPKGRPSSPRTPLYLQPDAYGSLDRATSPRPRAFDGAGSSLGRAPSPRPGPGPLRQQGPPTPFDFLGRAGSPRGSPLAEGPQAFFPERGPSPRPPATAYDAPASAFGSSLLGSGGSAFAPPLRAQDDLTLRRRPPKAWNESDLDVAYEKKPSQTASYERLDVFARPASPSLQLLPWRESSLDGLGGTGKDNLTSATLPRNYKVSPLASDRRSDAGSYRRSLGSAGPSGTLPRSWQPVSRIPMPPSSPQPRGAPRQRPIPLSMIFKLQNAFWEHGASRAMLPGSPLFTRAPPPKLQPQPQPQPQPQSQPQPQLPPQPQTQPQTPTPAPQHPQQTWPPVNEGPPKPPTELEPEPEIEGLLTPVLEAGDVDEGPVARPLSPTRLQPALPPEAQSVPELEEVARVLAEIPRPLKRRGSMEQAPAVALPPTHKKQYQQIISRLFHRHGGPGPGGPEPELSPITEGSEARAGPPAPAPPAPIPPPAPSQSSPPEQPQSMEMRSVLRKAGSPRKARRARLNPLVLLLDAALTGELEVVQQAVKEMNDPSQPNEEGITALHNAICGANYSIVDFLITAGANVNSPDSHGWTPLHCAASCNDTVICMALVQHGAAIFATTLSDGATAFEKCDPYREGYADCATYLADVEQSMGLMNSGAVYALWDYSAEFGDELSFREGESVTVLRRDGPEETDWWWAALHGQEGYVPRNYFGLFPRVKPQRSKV
The test is described as follows: co-IP; HEK293 cells transiently transfected with wt CD44 or CD44 mutants; IP with antibodies against iASPP, blot for CD44 and iASPP.

For test [2], the target named is T1, iASPP (in lysates of cells transfected with CD44 constructs). The test is described as follows: co-IP; MCF-7 cells transiently transfected with wt CD44 or the same CD44 mutants; iASPP-CD44 interaction by blot (Figure 3C).
For test [3], the target named is T2, inhibitor of the apoptosis-stimulating protein of p53 (iASPP) (human (endogenous in AG1523, hTERT-BJ, MCF10A, HepG2, MTS64, H1299)) (UniProt Q8WUF5).
T2 sequence: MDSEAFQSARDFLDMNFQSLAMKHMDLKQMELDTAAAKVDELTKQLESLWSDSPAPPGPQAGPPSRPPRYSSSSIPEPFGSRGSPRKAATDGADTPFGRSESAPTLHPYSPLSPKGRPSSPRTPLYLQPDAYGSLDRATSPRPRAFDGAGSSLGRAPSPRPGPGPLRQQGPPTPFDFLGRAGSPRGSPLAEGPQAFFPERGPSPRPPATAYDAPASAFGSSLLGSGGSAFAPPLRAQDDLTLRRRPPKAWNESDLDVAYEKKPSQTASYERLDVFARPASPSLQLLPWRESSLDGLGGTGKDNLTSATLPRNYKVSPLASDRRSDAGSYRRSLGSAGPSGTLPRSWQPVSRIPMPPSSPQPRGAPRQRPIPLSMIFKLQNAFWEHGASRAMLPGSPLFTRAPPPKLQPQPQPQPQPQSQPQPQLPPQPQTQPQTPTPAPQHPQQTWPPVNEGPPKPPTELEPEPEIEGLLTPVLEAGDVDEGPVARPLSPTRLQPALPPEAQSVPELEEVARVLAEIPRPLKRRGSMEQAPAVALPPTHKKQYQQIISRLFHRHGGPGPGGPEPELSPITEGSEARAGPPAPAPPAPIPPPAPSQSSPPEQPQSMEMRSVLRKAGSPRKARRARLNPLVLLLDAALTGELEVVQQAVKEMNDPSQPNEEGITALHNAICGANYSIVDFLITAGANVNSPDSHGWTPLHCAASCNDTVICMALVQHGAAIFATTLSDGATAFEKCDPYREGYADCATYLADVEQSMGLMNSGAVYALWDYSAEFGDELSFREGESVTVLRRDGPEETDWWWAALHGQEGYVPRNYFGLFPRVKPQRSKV
The test is described as follows: proximity ligation; in situ PLA (Olink) for endogenous iASPP and CD44, with and without hyaluronan (Figure S2).

Test [4] has as its target T2, inhibitor of the apoptosis-stimulating protein of p53 (iASPP) (human (endogenous in AG1523, hTERT-BJ, MCF10A, HepG2, MTS64, H1299)). The test is described as follows: co-IP; lysates of AG1523, hTERT-BJ, MCF10A, HepG2, MTS64 and H1299 cells; IP with an iASPP antibody (control rabbit IgG), blot for CD44 and iASPP; one wash with 500 mM NaCl, four with 150 mM NaCl buffer; cells also starved and stimulated with hyaluronan, 10% FBS, Nutlin, PDGF-BB or TGFβ, treated with p53 siRNA or overexpressing p53, at regular or high density.

Test [5] concerns the target wild-type CD44 standard form (wt CD44) (UniProt P16070). As to the kind of experiment: co-IP; overexpression experiments; IP of CD44 with IM7 antibodies, blot with an iASPP antibody (Figure S1).

With “CD44 S316A (from UniProt P16070-12 21-361) (receptor)”, the binding result in test [1] is “binds”.

Take “CD44 mutant altering the putative nuclear localization signal (NLS mutant) (from UniProt P16070-12 21-361) (receptor)”: the binding result in test [2] and in test [1] was “binds” each time.

With “CD44 S325A (from UniProt P16070-12 21-361) (receptor)”, in test [1], the binding result is on record as “binds”.

In the case of “CD44 mutated in the ankyrin-binding domain (R313I, K314N) (from UniProt P16070-12 21-361) (receptor)”, the binding entry in test [2] is “binds”.

Consider “CD44 Δ320 deletion mutant (from UniProt P16070-12 21-320) (domain or fragment)”, for which the binding entry in test [2] and in test [1] was “binds” each time.

Consider “CD44 standard isoform (CD44s) (from UniProt P16070-12 21-361) (receptor)”, for which the binding entry in test [3] and in test [4] was “binds” in each case.

As to “CD44 S291A (from UniProt P16070-12 21-361) (receptor)”, in test [1], the binding entry is “binds”.

Regarding “wild-type CD44 standard form (wt CD44) (from UniProt P16070-12 21-361) (receptor)”, the binding result in test [2] and in test [1] was “binds” each time.

B1: iASPP (in lysates of cells transfected with CD44 constructs) (protein, UniProt Q8WUF5 1-828)
chain: MDSEAFQSARDFLDMNFQSLAMKHMDLKQMELDTAAAKVDELTKQLESLWSDSPAPPGPQAGPPSRPPRYSSSSIPEPFGSRGSPRKAATDGADTPFGRSESAPTLHPYSPLSPKGRPSSPRTPLYLQPDAYGSLDRATSPRPRAFDGAGSSLGRAPSPRPGPGPLRQQGPPTPFDFLGRAGSPRGSPLAEGPQAFFPERGPSPRPPATAYDAPASAFGSSLLGSGGSAFAPPLRAQDDLTLRRRPPKAWNESDLDVAYEKKPSQTASYERLDVFARPASPSLQLLPWRESSLDGLGGTGKDNLTSATLPRNYKVSPLASDRRSDAGSYRRSLGSAGPSGTLPRSWQPVSRIPMPPSSPQPRGAPRQRPIPLSMIFKLQNAFWEHGASRAMLPGSPLFTRAPPPKLQPQPQPQPQPQSQPQPQLPPQPQTQPQTPTPAPQHPQQTWPPVNEGPPKPPTELEPEPEIEGLLTPVLEAGDVDEGPVARPLSPTRLQPALPPEAQSVPELEEVARVLAEIPRPLKRRGSMEQAPAVALPPTHKKQYQQIISRLFHRHGGPGPGGPEPELSPITEGSEARAGPPAPAPPAPIPPPAPSQSSPPEQPQSMEMRSVLRKAGSPRKARRARLNPLVLLLDAALTGELEVVQQAVKEMNDPSQPNEEGITALHNAICGANYSIVDFLITAGANVNSPDSHGWTPLHCAASCNDTVICMALVQHGAAIFATTLSDGATAFEKCDPYREGYADCATYLADVEQSMGLMNSGAVYALWDYSAEFGDELSFREGESVTVLRRDGPEETDWWWAALHGQEGYVPRNYFGLFPRVKPQRSKV
As to B1, in test [5], the binding entry is “binds”.
